Reference: patent US20220289816A1, “IMMUNOTHERAPY WITH B*07 RESTRICTED PEPTIDES AND COMBINATION OF PEPTIDES AGAINST CANCERS AND RELATED METHODS” (Immatics Biotechnologies GmbH, priority 2018, published 2022)

Each substance was assayed on tumor tissue samples and normal tissue samples (HLA-B*07 positive) (assay: Identification and quantitation of tumor associated peptides presented on the cell surface (HLA immunoprecipitation, label-free LC-MS)). Conditions: Table 8a; cancer entities on which the peptide was found presented (abbreviations in table head).
Parameters: species or system human

Which “Peptide Presentation on cancer entities” value does the source give for “2 (VPGSDPARYEFL; listed as Homo sapiens) [compound 2]” here?
The value was “OSCAR”.

With “4 (GPKKFIVKL; listed as Homo sapiens) [compound 4]” as the substance, how does the “Peptide Presentation on cancer entities” value read?
The value was “PRCA”.

How did the “Peptide Presentation on cancer entities” value turn out when “5 (LPSLSHCSQL; listed as Homo sapiens) [compound 5]” was run?
Its value is “MEL”.

Which “Peptide Presentation on cancer entities” value does the source give for “8 (MPKTNLSKM; listed as Homo sapiens) [compound 8]” here?
Its value is “HNSCC”.

How did the “Peptide Presentation on cancer entities” value turn out when “12 (LPNTGRIGQLL; listed as Homo sapiens) [compound 12]” was run?
The value was “NSCLCadeno”.

How did the “Peptide Presentation on cancer entities” value turn out when “13 (LPNTGRIGQL; listed as Homo sapiens) [compound 13]” was run?
Its value is “PRCA”.

“17 (SPAAPLSPASSL; listed as Homo sapiens) [compound 17]” was tested. Which “Peptide Presentation on cancer entities” value did it give?
The value was “UBC”.

How did the “Peptide Presentation on cancer entities” value turn out when “18 (MALSVLRLAL; listed as Homo sapiens) [compound 18]” was run?
Its value is “GBC, GC, NSCLCsquam, OC, OSCAR, PACA, PRCA, SCLC”.

Which “Peptide Presentation on cancer entities” value does the source give for “20 (MVLGIGPVL; listed as Homo sapiens) [compound 20]” here?
The value was “CRC, GBC, HNSCC, NSCLCadeno,NSCLCsquam, OC, SCLC, UEC”.

For “21 (APSRLLEL; listed as Homo sapiens) [compound 21]”, which “Peptide Presentation on cancer entities” value is on record?
Its value is “HCC”.

Which “Peptide Presentation on cancer entities” value does the source give for “22 (LPQLKPAL; listed as Homo sapiens) [compound 22]” here?
Its value is “HNSCC, OSCAR”.

For “23 (VPRPTSTVGL; listed as Homo sapiens) [compound 23]”, which “Peptide Presentation on cancer entities” value is on record?
The value was “MEL”.

For “24 (VPRPTSTVGLFL; listed as Homo sapiens) [compound 24]”, which “Peptide Presentation on cancer entities” value is on record?
The value was “MEL”.

With “25 (RPQGAVGGL; listed as Homo sapiens) [compound 25]” as the substance, how does the “Peptide Presentation on cancer entities” value read?
Its value is “HCC”.

“27 (RIRVTSEVL; listed as Homo sapiens) [compound 27]” was tested. Which “Peptide Presentation on cancer entities” value did it give?
Its value is “BRCA”.

Which “Peptide Presentation on cancer entities” value does the source give for “29 (APLRVHITSL; listed as Homo sapiens) [compound 29]” here?
Its value is “MEL”.

How did the “Peptide Presentation on cancer entities” value turn out when “35 (APLPPPRAL; listed as Homo sapiens) [compound 35]” was run?
Its value is “GBM”.

For “39 (QPRPSSEKI; listed as Homo sapiens) [compound 39]”, which “Peptide Presentation on cancer entities” value is on record?
The value was “AML”.

How did the “Peptide Presentation on cancer entities” value turn out when “45 (TRPWSGPYIL; listed as Homo sapiens) [compound 45]” was run?
The value was “MEL”.

Which “Peptide Presentation on cancer entities” value does the source give for “46 (QPISGNPVTL; listed as Homo sapiens) [compound 46]” here?
The value was “NHL, NSCLCsquam, SCLC, UBC”.

How did the “Peptide Presentation on cancer entities” value turn out when “49 (APEKARAFL; listed as Homo sapiens) [compound 49]” was run?
Its value is “OSCAR”.

For “50 (PEKARAFL; listed as Homo sapiens) [compound 50]”, which “Peptide Presentation on cancer entities” value is on record?
Its value is “OSCAR”.

“51 (SPVFYVQTL; listed as Homo sapiens) [compound 51]” was tested. Which “Peptide Presentation on cancer entities” value did it give?
The value was “BRCA”.

“53 (SPRIPFSTF; listed as Homo sapiens) [compound 53]” was tested. Which “Peptide Presentation on cancer entities” value did it give?
Its value is “MEL”.

Which “Peptide Presentation on cancer entities” value does the source give for “54 (VPSCGRSVEGL; listed as Homo sapiens) [compound 54]” here?
Its value is “CLL, GBC, NHL, NSCLCadeno, OC, OSCAR, PACA, RCC, UEC”.

Which “Peptide Presentation on cancer entities” value does the source give for “55 (LPALLRSGL; listed as Homo sapiens) [compound 55]” here?
The value was “CCC, GBC, HCC, HNSCC, NSCLCadeno, NSCLCsquam, OC, OSCAR, RCC, SCLC”.

With “56 (LPALLRSGLTL; listed as Homo sapiens) [compound 56]” as the substance, how does the “Peptide Presentation on cancer entities” value read?
Its value is “BRCA, CCC, CRC, GBC, HCC, HNSCC, MEL, NHL, NSCLCadeno, OC, OSCAR, RCC”.

How did the “Peptide Presentation on cancer entities” value turn out when “57 (APLLPIRTL; listed as Homo sapiens) [compound 57]” was run?
The value was “UBC”.

For “58 (APLLPIRTLPL; listed as Homo sapiens) [compound 58]”, which “Peptide Presentation on cancer entities” value is on record?
Its value is “UBC”.

With “59 (KPRTIYSSL; listed as Homo sapiens) [compound 59]” as the substance, how does the “Peptide Presentation on cancer entities” value read?
The value was “OSCAR, UEC”.

For “61 (LPRIPFSTF; listed as Homo sapiens) [compound 61]”, which “Peptide Presentation on cancer entities” value is on record?
The value was “MEL”.

“63 (FPHMATTAF; listed as Homo sapiens) [compound 63]” was tested. Which “Peptide Presentation on cancer entities” value did it give?
Its value is “HNSCC”.

With “64 (VPRPIFSQLYL; listed as Homo sapiens) [compound 64]” as the substance, how does the “Peptide Presentation on cancer entities” value read?
Its value is “NHL, UEC”.

How did the “Peptide Presentation on cancer entities” value turn out when “65 (FPNVYSTLVL; listed as Homo sapiens) [compound 65]” was run?
Its value is “MEL”.

How did the “Peptide Presentation on cancer entities” value turn out when “67 (VPVSRPVL; listed as Homo sapiens) [compound 67]” was run?
Its value is “CLL, NHL”.

Which “Peptide Presentation on cancer entities” value does the source give for “68 (FPNEVSVVL; listed as Homo sapiens) [compound 68]” here?
The value was “BRCA, MEL, NSCLCadeno, NSCLCsquam, OC, OSCAR”.

For “69 (RPEDGRPRL; listed as Homo sapiens) [compound 69]”, which “Peptide Presentation on cancer entities” value is on record?
Its value is “GBM”.

For “70 (VPAQRLGLL; listed as Homo sapiens) [compound 70]”, which “Peptide Presentation on cancer entities” value is on record?
Its value is “AML, NSCLCadeno, NSCLCsquam, OC, OSCAR”.

With “71 (APFAPLHGGGSL; listed as Homo sapiens) [compound 71]” as the substance, how does the “Peptide Presentation on cancer entities” value read?
Its value is “PRCA”.

For “72 (APCNGNVAV; listed as Homo sapiens) [compound 72]”, which “Peptide Presentation on cancer entities” value is on record?
Its value is “BRCA, NSCLCadeno”.

How did the “Peptide Presentation on cancer entities” value turn out when “73 (LPVSSPVTL; listed as Homo sapiens) [compound 73]” was run?
The value was “BRCA, NSCLCsquam”.

With “74 (VPVSHPVL; listed as Homo sapiens) [compound 74]” as the substance, how does the “Peptide Presentation on cancer entities” value read?
Its value is “CLL, NHL”.

For “76 (KPKVESQAL; listed as Homo sapiens) [compound 76]”, which “Peptide Presentation on cancer entities” value is on record?
Its value is “BRCA”.

With “77 (QPRLVPGETL; listed as Homo sapiens) [compound 77]” as the substance, how does the “Peptide Presentation on cancer entities” value read?
Its value is “GBC, MEL, NHL, NSCLCadeno, NSCLCsquam”.

How did the “Peptide Presentation on cancer entities” value turn out when “78 (HPSQESPTL; listed as Homo sapiens) [compound 78]” was run?
The value was “NSCLCsquam, OC, RCC, UBC, UEC”.

For “79 (GPASDHPSL; listed as Homo sapiens) [compound 79]”, which “Peptide Presentation on cancer entities” value is on record?
Its value is “OC, PRCA, UEC”.

For “80 (SALPTTISF; listed as Homo sapiens) [compound 80]”, which “Peptide Presentation on cancer entities” value is on record?
The value was “HNSCC, OSCAR, SCLC”.

Which “Peptide Presentation on cancer entities” value does the source give for “82 (DAAHPGPSV; listed as Homo sapiens) [compound 82]” here?
Its value is “UEC”.

“83 (AVSSHHNVI; listed as Homo sapiens) [compound 83]” was tested. Which “Peptide Presentation on cancer entities” value did it give?
The value was “RCC”.

Which “Peptide Presentation on cancer entities” value does the source give for “85 (MPMQDIKMILKM; listed as Homo sapiens) [compound 85]” here?
Its value is “OC, SCLC”.

How did the “Peptide Presentation on cancer entities” value turn out when “87 (APVGGNVTSSF; listed as Homo sapiens) [compound 87]” was run?
The value was “OSCAR”.

With “89 (FLIPRAGWLAGL; listed as Homo sapiens) [compound 89]” as the substance, how does the “Peptide Presentation on cancer entities” value read?
Its value is “CRC”.

Which “Peptide Presentation on cancer entities” value does the source give for “93 (SVAIAHGVF; listed as Homo sapiens) [compound 93]” here?
Its value is “CLL, CRC”.

How did the “Peptide Presentation on cancer entities” value turn out when “95 (RTKEEINEL; listed as Homo sapiens) [compound 95]” was run?
The value was “NSCLCadeno”.

Which “Peptide Presentation on cancer entities” value does the source give for “97 (LPPGTQIQI; listed as Homo sapiens) [compound 97]” here?
Its value is “CRC”.

Which “Peptide Presentation on cancer entities” value does the source give for “98 (FPCSALLACF; listed as Homo sapiens) [compound 98]” here?
The value was “OSCAR”.

For “99 (MPVSAFTVI; listed as Homo sapiens) [compound 99]”, which “Peptide Presentation on cancer entities” value is on record?
The value was “GC, NSCLCsquam”.

For “100 (TPIPFDKILY; listed as Homo sapiens) [compound 100]”, which “Peptide Presentation on cancer entities” value is on record?
Its value is “OSCAR”.

Which “Peptide Presentation on cancer entities” value does the source give for “101 (KPGLPGLK; listed as Homo sapiens) [compound 101]” here?
Its value is “BRCA, CRC, GBM, HCC, MEL, NHL, NSCLCadeno, NSCLCsquam, OC, OSCAR, RCC, SCLC, UBC, UEC”.

With “102 (MAGPAIHTAPM; listed as Homo sapiens) [compound 102]” as the substance, how does the “Peptide Presentation on cancer entities” value read?
Its value is “HNSCC”.

For “105 (RPRYETGVCA; listed as Homo sapiens) [compound 105]”, which “Peptide Presentation on cancer entities” value is on record?
Its value is “CRC”.

With “107 (GQRLESPGGAA; listed as Homo sapiens) [compound 107]” as the substance, how does the “Peptide Presentation on cancer entities” value read?
The value was “AML, CCC, CLL, CRC, GBC, HCC, HNSCC, NSCLCsquam, PACA, UBC, UEC”.

Which “Peptide Presentation on cancer entities” value does the source give for “108 (APRGSPPI; listed as Homo sapiens) [compound 108]” here?
The value was “HCC, OC, OSCAR, PACA, RCC”.

“111 (YPLQQTNVY; listed as Homo sapiens) [compound 111]” was tested. Which “Peptide Presentation on cancer entities” value did it give?
Its value is “RCC”.

“112 (YPSPLNKHSF; listed as Homo sapiens) [compound 112]” was tested. Which “Peptide Presentation on cancer entities” value did it give?
Its value is “RCC”.

“114 (FVPPSGPSNPM; listed as Homo sapiens) [compound 114]” was tested. Which “Peptide Presentation on cancer entities” value did it give?
Its value is “HNSCC”.

“115 (KTKSLAQQL; listed as Homo sapiens) [compound 115]” was tested. Which “Peptide Presentation on cancer entities” value did it give?
Its value is “CRC, NSCLCadeno, UEC”.

For “116 (RSYQHSLRL; listed as Homo sapiens) [compound 116]”, which “Peptide Presentation on cancer entities” value is on record?
The value was “CRC”.

For “117 (IPHQRSSL; listed as Homo sapiens) [compound 117]”, which “Peptide Presentation on cancer entities” value is on record?
The value was “CLL”.

“118 (NPERHKPSF; listed as Homo sapiens) [compound 118]” was tested. Which “Peptide Presentation on cancer entities” value did it give?
The value was “AML”.

For “120 (TVRPKNAAL; listed as Homo sapiens) [compound 120]”, which “Peptide Presentation on cancer entities” value is on record?
The value was “AML, HCC, OSCAR, UEC”.

With “121 (GPFQRAAL; listed as Homo sapiens) [compound 121]” as the substance, how does the “Peptide Presentation on cancer entities” value read?
Its value is “UEC”.

How did the “Peptide Presentation on cancer entities” value turn out when “122 (KPRTPFTTAQLL; listed as Homo sapiens) [compound 122]” was run?
Its value is “UEC”.

For “123 (RPRLRDLPAL; listed as Homo sapiens) [compound 123]”, which “Peptide Presentation on cancer entities” value is on record?
Its value is “CLL, GBC, NHL, OC, OSCAR, RCC”.

How did the “Peptide Presentation on cancer entities” value turn out when “124 (KTIDGHINL; listed as Homo sapiens) [compound 124]” was run?
The value was “CRC, NSCLCadeno, NSCLCother”.

“125 (SPAKQFNIY; listed as Homo sapiens) [compound 125]” was tested. Which “Peptide Presentation on cancer entities” value did it give?
The value was “SCLC”.

“126 (MPREDAHF; listed as Homo sapiens) [compound 126]” was tested. Which “Peptide Presentation on cancer entities” value did it give?
The value was “MEL”.

“127 (KSKQVITLL; listed as Homo sapiens) [compound 127]” was tested. Which “Peptide Presentation on cancer entities” value did it give?
Its value is “NSCLCsquam”.
